Measurements reported in US9296753B2, “Crystalline forms of a Bruton's tyrosine kinase inhibitor” (Pharmacyclics LLC, priority 2012, dated 2016).
At least one structure is not confirmed: it was looked up by name or label, or the drawing left a doubt.

Test system: OCI-Ly10
Assay: Induction of apoptosis in OCI-Ly10 (caspase activation, Annexin-V flow cytometry, sub-G0 fraction)
Format: cell-based
Settings: increase in sub-G0 fraction

## C=CC(=O)N1CCC[C@@H](n2nc(-c3ccc(Oc4ccccc4)cc3)c3c(N)ncnc32)C1 [Compound 1, 1-((R)-3-(4-amino-3-(4-phenoxyphenyl)-1H-pyrazolo[3,4-d]pyrimidin-1-yl)piperidin-1-yl)prop-2-en-1-one]
  induction of apoptosis: observed
